# Reference: PubChem BioAssay AID493014 (National Center for Advancing Translational Sciences (NCATS), 2011)
# This is one part of the list. Further columns of the screen follow, without active or inactive calls. Most of these compounds were active or inconclusive in the main read-out, so they are no random draw. Potencies come from curve fits of mixed quality, noted in brackets.
# Experiment: qHTS Assay to Find Inhibitors of Chronic Active B-Cell Receptor Signaling
# Details: ABC-DLBCL IkBa-CBG/CBR reporter, luminescence ratio (green luciferase fused to IkBa over red control in TMD8 lymphoma cells), 4 h
# How it was run: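 Concentration-response series (up to 46 uM) were applied to TMD8 dual-reporter cells for 4 h at 37C with doxycycline. Green/red ratio, after filter-overlap correction, defined %Activity; red signal alone was normalised to basal cells and zero luminescence.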
# [1] = measured here: CBR red luminescence, cell number
# [2] = measured here: IkBa-CBG green luminescence
SMILES,AC50 [1],AC50 [2]
CSc1nsc(/C=C/Nc2ccc(F)cc2)c1C#N,"22.4 µM [falling, single point]",
CCOC(=O)c1cc(-c2ccccc2)n(CCC(=O)Nc2ccc(Cl)c(C(F)(F)F)c2)c1C,"35.5 µM [falling, single point]",
Cc1ccc(OCCNC(=O)c2ccc3ccccc3n2)cc1,"11.2 µM [rising, partial curve, poor fit]",
Cc1ccc(C#N)c(SCc2ccccc2F)n1,"22.4 µM [rising, partial curve, poor fit]","28.2 µM [falling, partial curve, poor fit]"
CS(=O)(=O)C1=NN2C(=N)/C(=C\c3ccc(OCCOc4ccccc4)cc3)C(=O)N=C2S1,"2.82 µM [rising, partial curve]",
Cc1cc(C)n(Cc2ccccc2F)c(=O)c1C#N,"14.6 µM [rising, partial curve, poor fit]",
C/C(NCCN1CCOCC1)=C(\C#N)C(N)=O,"14.6 µM [rising, partial curve, poor fit]",
CCOc1ccc(/C=N/NC(=O)c2[nH]c3ccc(C)cc3c2C)cc1,"20 µM [falling, partial curve, poor fit]",
O=S(=O)(c1ccc(F)cc1)N1CCCC1,"25.1 µM [rising, single point]",
COc1ccccc1C1CC(=O)Nc2cc3c(cc21)OCCO3 (centres undefined),,"18.4 µM [falling, partial curve]"
CCn1cnc2cc(NCc3cccs3)ccc21,"15.8 µM [falling, single point]",
Cc1cccc(NC(=O)C2CCCN(C(=O)Nc3ccccc3)C2)c1C (centres undefined),"2.91 µM [rising, full curve, poor fit]",
O=C(Nc1ccc(Cl)cc1)c1cc2nc(-c3ccco3)cc(C(F)(F)F)n2n1,"23.1 µM [rising, single point]",
CN(C)c1ccc(C(=S)N2CCCC2)cc1Br,"0.631 µM [rising, full curve, poor fit]",
O=C1C=C(c2cccs2)CC(c2cccs2)C1n1cnc([N+](=O)[O-])c1 (centres undefined),"11.2 µM [falling, partial curve, poor fit]",
Nc1ncnc2c1ncn2[C@@H]1O[C@H](CNCc2ccc(OCC(=O)Nc3ccccn3)cc2)[C@@H](O)[C@H]1O,"23.1 µM [falling, single point]",
CC1(C)C(=O)Nc2ccccc2N1C(=O)COC(=O)CSc1ccc(Cl)cc1,"32.6 µM [rising, single point]",
CCOC(=O)N1CCc2c(sc(NCc3ccc(OC)c(OC)c3OC)c2C(=O)Nc2ccc(OC)cc2OC)C1,"0.562 µM [rising, full curve, poor fit]",
COc1ccccc1C(=O)NCCC(=O)N1CCN(C(=O)c2ccco2)CC1,"0.517 µM [rising, full curve, poor fit]",
Cc1c(Cl)cccc1-n1c(SCC(=O)NCc2ccccc2Cl)nnc1-c1ccncc1,"25.1 µM [falling, partial curve, poor fit]",
O=C(CSc1cccc[n+]1[O-])c1ccc(-c2ccccc2)cc1,"35.5 µM [falling, single point]","8.91 µM [falling, partial curve, poor fit]"
O=C(CNC(=O)C(c1ccccc1)c1ccccc1)N/N=C/c1ccc(O)cc1O,"11.2 µM [falling, single point]",
CC1SCC(=NOCc2c(Cl)cccc2Cl)CS1 (centres undefined),"0.794 µM [rising, partial curve, poor fit]",

# Taken from the listing, 3 compounds:
SMILES,AC50 [1],AC50 [2]
Cc1c(Cl)cccc1-n1c(SCC(=O)NCc2ccccc2Cl)nnc1-c1ccncc1,"25.1 µM [falling, partial curve, poor fit]",
O=C(CSc1cccc[n+]1[O-])c1ccc(-c2ccccc2)cc1,"35.5 µM [falling, single point]","8.91 µM [falling, partial curve, poor fit]"
O=C(CNC(=O)C(c1ccccc1)c1ccccc1)N/N=C/c1ccc(O)cc1O,"11.2 µM [falling, single point]",

# Following part.

SMILES,AC50 [1],AC50 [2]
Cc1nc2ccc(F)cc2cc1C(=O)Nc1ccc(Cl)c(Cl)c1,"1.46 µM [rising, full curve]",
CCCOc1ccc(C2C(=O)N(C3CCC(C)CC3)CC(=O)N2CCC2=CCCCC2)cc1OC (centres undefined),"4.47 µM [falling, partial curve, poor fit]",
CC(=O)N/N=C(\N)c1nonc1N,"2.24 µM [falling, full curve]",
CC(C)c1ccc(C2=C(O)c3ccccc3C(=O)C2=O)cc1,"13 µM [falling, partial curve, poor fit]",
CC(C)(Oc1ccc(Cl)cc1)C(=O)NCc1n[nH]c(=O)c2ccccc12,"18.4 µM [falling, single point]",
Cc1c(N2CCCC2)cc2c(c1NC(=O)c1ccccc1Cl)C(C)(C)CC2(C)C,"0.1 µM [falling, full curve, poor fit]",
Cc1nc(C)c(-c2csc(Nc3ccc(S(N)(=O)=O)cc3)n2)s1,"20 µM [falling, single point]",
CCOc1ccccc1-n1c(SCC(=O)NCc2ccco2)nnc1-c1ccncc1,"29.1 µM [falling, single point]",
Cc1nc(-c2ccccc2)sc1-c1nnc(C2CC2)o1,"5.01 µM [rising, single point]",
O=C(c1ccccc1)c1cc(Cl)ccc1N1C(=O)C=CC1=O,"35.5 µM [falling, single point]","35.5 µM [rising, partial curve, poor fit]"
CCOc1ccc(NC(=S)N(CCCN2CCCC2)Cc2cccn2Cc2ccc(Cl)cc2)cc1,"10 µM [falling, partial curve, poor fit]",
CCN(CC)S(=O)(=O)c1ccc(N2CCOCC2)c(NC(=O)c2ccc(N3CCCC3=O)cc2)c1,"4.11 µM [rising, full curve, poor fit]",
Cc1n[nH]c(=O)nc1NCCc1ccccc1,"2.59 µM [rising, partial curve, poor fit]",
O=C(CCC(=O)Nc1nnc(C2CCCCC2)s1)NCc1ccc(F)cc1,"17.8 µM [rising, single point]",
COc1ccccc1C(=O)Nc1nnc(SCC(=O)Nc2ccc3c(c2)oc2ccccc23)s1,"0.164 µM [falling, full curve, poor fit]",
Cc1c(-c2ccc(O)cc2)nc2nc(-c3ccccc3)c(-c3ccccc3)nn12,"11.2 µM [falling, partial curve, poor fit]",
CCOC(=O)c1c(C)oc2c1c1c(c3ccccc32)OCN(Cc2cccnc2)C1,"0.82 µM [falling, full curve, poor fit]",
CCOC(=O)c1ccc(NC(=O)CSc2nc3c(c(=O)n2C)SC(C)C3)cc1 (centres undefined),"11.6 µM [falling, partial curve, poor fit]",
O=C1NC(c2ccccn2)Nc2sc3c(c21)CCC3 (centres undefined),"35.5 µM [rising, single point]",
Nc1ccc(Br)cc1Br,"3.16 µM [rising, partial curve, poor fit]",
Cc1ccc(S(=O)(=O)CCC(=O)OCC(=O)N(C)CC(=O)Nc2ccc(F)cc2)cc1,"11.6 µM [falling, partial curve, poor fit]",
COc1cc(/C=N/n2c(-c3ccc4c(c3)NC(=O)CO4)csc2=Nc2cccc(C)c2)ccc1O,"23.1 µM [falling, partial curve, poor fit]",
COc1ccc2c(Cl)c(C(=O)NCC3CCCO3)sc2c1Cl (centres undefined),"0.164 µM [rising, full curve]",
